Results as given in PubChem BioAssay AID2685 (National Center for Advancing Translational Sciences (NCATS), 2010).
Where “and” joins values, the source holds several entries; their conditions need not be identical. Equal entries are not always repeated. The list shows a part of the results. These are further read-outs of the screen, such as a control signal, another cell line or another target. No call is given for them. Most of these compounds were active or inconclusive in the main read-out, so they are no random draw. Words in brackets tell the shape of the fitted curve; partial curves, single points and poor fits give uncertain potencies.

Test: qHTS Assay for Lipid Storage Modulators in Drosophila S3 Cells;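 for cell number change: cells counted by Cell Tracker Red CMTPX staining in the red channel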
Details: BODIPY lipid droplet fluorescence, 18-24 h; for cell number change: measured here: cell count max response, cells fed with added oleic acid
Method in brief: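 Drosophila S3 cells got compounds at several concentrations plus oleic acid (400 uM solution). Laser-scanning cytometry with 488 nm excitation read lipid droplets at 500-530 nm and cells at 575-640 nm. Percent activity was relative to 20 uM Triacsin C.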

[1] = measured here: cell number channel AC50, cells fed with added oleic acid
[2] = measured here: lipid fluorescence (Fed channel) AC50, cells fed with added oleic acid

Row | Structure (SMILES) | cell number change | AC50 [1] | AC50 [2]
1 | COc1ccccc1/C=C1\SC(=S)N(CC(=O)Nc2nnc(C)s2)C1=O | -34.6% | 29.1 µM [falling, single point] | –
2 | O=C(CSCC(=O)N1CCCCC1)Nc1nc(-c2ccc(Cl)s2)cs1 | 2.27% | 0.731 µM [falling, single point] | 0.731 µM [falling, single point]
3 | CCN(CC)c1nc(N)c2c(N)n(-c3ccccc3C)c(=S)c(C#N)c2c1C#N | 34.7% | 0.0092 µM [rising, full curve, poor fit] | –
4 | CC(C)Oc1ccc(CNC(=S)N/N=C/c2ccc([N+](=O)[O-])cc2)cc1 | -16.3% | – | 6.51 µM [falling, partial curve, poor fit]
5 | Cn1c(=O)n(C/C=C/c2ccccc2)c(=O)c2c1nc1n2CCCN1Cc1ccccc1 | -16.5% | – | –
6 | COc1ccc(CCNC(=O)CN(CCc2ccccc2)S(C)(=O)=O)cc1 | -38.1% | 16.4 µM [falling, partial curve, poor fit] | 6.51 µM [falling, single point]
7 | COc1ccc(C2CC(c3ccccc3)=NN2S(=O)(=O)c2ccc(C)cc2)c(OC)c1 (configuration not stated) | – | – | 6.51 µM [rising, single point]
8 | O=[N+]([O-])c1ccc(-c2nc(=S)c3c(o2)CCCC3)cc1 | -12.5% | – | 0.00517 µM [falling, full curve, poor fit]
9 | CC(=O)NS(=O)(=O)c1ccc(NC(=O)C(Sc2ccccc2)c2ccccc2)cc1 (configuration not stated) | – | – | 0.82 µM [rising, single point]
10 | CC(C)(C)c1cc(CCC(=O)N2CCC2)cc(C(C)(C)C)c1O | -1.08% | – | –
11 | CCC(C)(C)NC(=O)C(c1cccc(OC)c1OC)N(Cc1ccc(OC)cc1)C(=O)CCC(=O)Nc1cc(C)on1 (configuration not stated) | -17.9% | – | 6.51 µM [falling, single point]
12 | Cc1ccc(S(=O)(=O)NC(=O)NCCCN2CCOCC2)cc1 | 27.3% | – | –
13 | CCOC(=O)C1CCN(C(=O)CN(c2ccc3c(c2)OCCO3)S(=O)(=O)c2ccccc2)CC1 | 72.7% | 9.2 µM [rising, partial curve] | –
14 | COc1cccc(C2=NOC(C(=O)NCCN3CCOCC3)C2)c1 (configuration not stated) | -7.13% | 3.66 µM [rising, single point] | –
15 | Cc1ccc(S(=O)(=O)NC(=O)Nc2ccc(C)cc2C)cc1 | -5.95% | – | 29.1 µM [falling, single point]
16 | COc1ccc(OC)c(NC(=O)c2cccc(NC(=O)c3ccccc3)c2)c1 | -26.4% | – | 16.4 µM [falling, single point]
17 | O=C(Nc1c(-c2ccccc2)nc2c(Br)cc(Br)cn12)c1ccco1 | 69.3% | 5.8 µM [rising, partial curve, poor fit] | 5.17 µM [falling, single point]
18 | C=CCNC(=O)C1CCN(c2ccc(S(=O)(=O)N3CCOCC3)cc2[N+](=O)[O-])CC1 | -46.1% | 6.51 µM [falling, single point] | 6.51 µM [falling, single point]
19 | Nc1c(-c2ccccc2)cnc2c(-c3ccccc3)cnn12 | 1.65% | – | 20.6 µM [rising, single point]
20 | COc1ccc(CNC(=O)C2CCC(CNC(=O)[C@@H]3Cc4ccccc4CN3)CC2)cc1 (some centres not stated) | 36.3% | 0.082 µM [rising, full curve] | 29.1 µM [rising, single point]
21 | COc1ccc(C(=O)NC(=S)Nc2ccc3c4c(cccc24)CC3)cc1OC | -59.1% | 32.6 µM [falling, single point] | 32.6 µM [falling, single point]
22 | COC(=O)c1ccc(COn2nnc3ccccc32)cc1 | – | – | 0.58 µM [falling, single point]
23 | O=C(NCC(=O)N(Cc1cccs1)C(C(=O)NC1CCCC1)c1cccnc1)c1ccco1 (configuration not stated) | -34% | 0.164 µM [falling, full curve, poor fit] | –
24 | Cc1ccc(CNC(=O)C2CCN(S(=O)(=O)c3c(C)noc3/C=C/N(C)C)CC2)cc1 | -7.55% | – | 0.00517 µM [rising, full curve, poor fit]
25 | CN(C(=O)c1ccc(NC(=O)Cc2ccc(NC(=O)C3CCCN(C(=O)c4ccccc4)C3)cc2)cc1)C1CC1 (configuration not stated) | -21.8% | – | –
26 | O=C(CCc1c[nH]c2ccccc12)Nc1ncccc1O | 23.4% | – | 16.4 µM [rising, partial curve, poor fit]
27 | CC(=O)n1nc(-c2ccncc2)nc1SCC(=O)Nc1cccc(Cl)c1 | -11.1% | – | 0.58 µM [falling, single point]
28 | CC(=O)N1CC(C)Sc2ccc(S(=O)(=O)NCc3ccc(F)cc3)cc21 (configuration not stated) | – | – | 0.146 µM [rising, full curve, poor fit]

An excerpt from above, showing only AC50 [1] and cell number change.

| Row | Structure (SMILES) | AC50 [1] | cell number change |
| --- | --- | --- | --- |
| 1 | COc1ccccc1/C=C1\SC(=S)N(CC(=O)Nc2nnc(C)s2)C1=O | 29.1 µM [falling, single point] | -34.6% |
| 3 | CCN(CC)c1nc(N)c2c(N)n(-c3ccccc3C)c(=S)c(C#N)c2c1C#N | 0.0092 µM [rising, full curve, poor fit] | 34.7% |
| 25 | CN(C(=O)c1ccc(NC(=O)Cc2ccc(NC(=O)C3CCCN(C(=O)c4ccccc4)C3)cc2)cc1)C1CC1 (configuration not stated) | – | -21.8% |
| 26 | O=C(CCc1c[nH]c2ccccc12)Nc1ncccc1O | – | 23.4% |

(cont.)

Row | Structure (SMILES) | cell number change | AC50 [1] | AC50 [2]
29 | COc1ccc(CSc2ccc(-c3nc4ccccn4c3NCc3ccccc3)cc2OC)cc1 | -28.6% | – | –
30 | Cc1cc2oc(C(=O)Nc3ccc(S(=O)(=O)Nc4ncccn4)cc3)c(C)c2cc1Cl | – | – | 6.51 µM [rising, single point]
31 | COc1cccc(-n2c(-c3ccco3)nc3nc4ccccc4nc32)c1 | 39.5% | 20.6 µM [rising, single point] | 14.6 µM [rising, single point]
32 | CCCOc1ccc(-c2nn(-c3ccccc3)cc2/C=C2\SC(N)=NC2=O)cc1 | -0.583% | – | 29.1 µM [rising, single point]
33 | CCN(CC)S(=O)(=O)c1ccc2c(c1)N(CC(=O)N1CCN(c3ccc(F)cc3)CC1)C(=O)CO2 | 14.6% | – | 29.1 µM [rising, single point]
34 | CCCN(CCC)C(=O)Cn1c(=O)c2ccccc2n2c(=S)sc(-c3ccccc3C)c12 | -50.8% | 3.26 µM [falling, full curve, poor fit] | 6.51 µM [rising, partial curve]
35 | COC(=O)C1(c2ccccc2)NC(c2ccc(O)cc2)C2C(=O)N(c3ccc4c(c3)OCO4)C(=O)C21 (configuration not stated) | -6.12% | – | 0.058 µM [falling, full curve, poor fit]
36 | OCCN1CCN(c2ncnc3nc[nH]c23)CC1 | -21.3% | – | 23.1 µM [falling, partial curve]
37 | N#CC1=C(N)Oc2ccc3ccc(O)cc3c2C1c1cccnc1 (configuration not stated) | 1.52% | – | 13 µM [rising, partial curve]
38 | CCCc1cc(NCCCn2ccnc2)n2nc(C)c(-c3ccccc3)c2n1 | -30% | – | 29.1 µM [falling, single point]
39 | COc1cc2cc(CN(Cc3cccs3)C(=S)Nc3ccc(C)cc3)c(=O)[nH]c2cc1OC | 15.4% | 2.91 µM [rising, partial curve] | 0.092 µM [rising, full curve, poor fit]
40 | COc1cccc(NC(=S)Nc2cccc3ccccc23)c1 | -41% | – | –
41 | O=C(COc1ccc(NC(=O)c2cccs2)cc1)c1ccc(F)cc1 | 6.31% | – | 13 µM [falling, partial curve]
42 | CNc1ccc(Br)cc(C(=O)/C=C/c2ccc(Cl)cc2Cl)c1=O | -59.1% | 5.17 µM [falling, full curve] | 8.2 µM [falling, partial curve]
43 | COc1ccc(N2C(=O)CSC2c2ccc3c(c2)OCO3)cc1 (configuration not stated) | 18.9% | 2.59 µM [rising, single point] | –
44 | CC(C)C(=O)Nc1nnc(COc2ccc(Cl)cc2)s1 | 32.1% | 23.1 µM [rising, single point] | –
45 | COc1cccc(NC(=O)CSc2nc(=O)n(CCN(C)C)c3c2CCCC3)c1 | -25% | 0.00461 µM [falling, full curve] | –
46 | CCCOc1ccc(NC(=O)CC2C(=O)N(C)C(=S)N2Cc2ccc3c(c2)OCO3)cc1 (configuration not stated) | -7.12% | – | 2.59 µM [rising, partial curve]
47 | COC(=O)C1=C(C)N(Cc2ccccc2)C(=NCCc2cccnc2)N[C@H]1c1ccccc1 | 29.1% and 1.16% | – | 16.4 µM [falling, single point]
48 | O=C(Nc1cccnc1Cl)C1CCCN(c2ncnc3c2nc2n3CCCCC2)C1 (configuration not stated) | -33.9% | – | 29.1 µM [falling, single point]
49 | CCOC(=O)c1cc(-c2ccccc2)n(CC(=O)Nc2cc(OC)cc(OC)c2)c1C | 18.4% | – | 29.1 µM [rising, single point]
50 | Cc1cccc(NC(=O)c2ccc(S(=O)(=O)NCc3cccnc3)cc2)c1 | 6.41% | – | 5.17 µM [rising, single point]
51 | CCC(Oc1ccc(C)cc1)C(=O)Nc1ccc(S(=O)(=O)Nc2cc(C)on2)cc1 (configuration not stated) | 10.4% | – | 0.58 µM [rising, single point]
52 | COc1cc(-c2ccc(Nc3ccccc3C(=O)O)c(OC)c2)ccc1Nc1ccccc1C(=O)O | -35.6% | 23.1 µM [falling, single point] | 0.146 µM [rising, full curve, poor fit]
53 | CCN1/C(=C2/SC(=S)N(NC(C)=O)C2=O)Sc2ccccc21 | 33.1% | 14.6 µM [rising, single point] | –
54 | O=Nc1c(-c2ccccc2)[nH]n(-c2ccccc2)c1=O | -41.2% | 29.1 µM [falling, partial curve, poor fit] | 0.58 µM [falling, full curve]
55 | Cc1ccsc1/C=N/n1c(-c2ccco2)n[nH]c1=S | -33.5% | 0.82 µM [falling, full curve] | 4.61 µM [falling, partial curve, poor fit]
